Data taken from PMC6377189.
No constants are given. Whether binding was seen depends on the method and setting. In cells and extracts the contact can be indirect. Some results given as binding are weak or reduced against the parent protein; the word gives no strength.

By UniProt entry, the sequences of proteins in these tests, tags left out.
UniProt P42858: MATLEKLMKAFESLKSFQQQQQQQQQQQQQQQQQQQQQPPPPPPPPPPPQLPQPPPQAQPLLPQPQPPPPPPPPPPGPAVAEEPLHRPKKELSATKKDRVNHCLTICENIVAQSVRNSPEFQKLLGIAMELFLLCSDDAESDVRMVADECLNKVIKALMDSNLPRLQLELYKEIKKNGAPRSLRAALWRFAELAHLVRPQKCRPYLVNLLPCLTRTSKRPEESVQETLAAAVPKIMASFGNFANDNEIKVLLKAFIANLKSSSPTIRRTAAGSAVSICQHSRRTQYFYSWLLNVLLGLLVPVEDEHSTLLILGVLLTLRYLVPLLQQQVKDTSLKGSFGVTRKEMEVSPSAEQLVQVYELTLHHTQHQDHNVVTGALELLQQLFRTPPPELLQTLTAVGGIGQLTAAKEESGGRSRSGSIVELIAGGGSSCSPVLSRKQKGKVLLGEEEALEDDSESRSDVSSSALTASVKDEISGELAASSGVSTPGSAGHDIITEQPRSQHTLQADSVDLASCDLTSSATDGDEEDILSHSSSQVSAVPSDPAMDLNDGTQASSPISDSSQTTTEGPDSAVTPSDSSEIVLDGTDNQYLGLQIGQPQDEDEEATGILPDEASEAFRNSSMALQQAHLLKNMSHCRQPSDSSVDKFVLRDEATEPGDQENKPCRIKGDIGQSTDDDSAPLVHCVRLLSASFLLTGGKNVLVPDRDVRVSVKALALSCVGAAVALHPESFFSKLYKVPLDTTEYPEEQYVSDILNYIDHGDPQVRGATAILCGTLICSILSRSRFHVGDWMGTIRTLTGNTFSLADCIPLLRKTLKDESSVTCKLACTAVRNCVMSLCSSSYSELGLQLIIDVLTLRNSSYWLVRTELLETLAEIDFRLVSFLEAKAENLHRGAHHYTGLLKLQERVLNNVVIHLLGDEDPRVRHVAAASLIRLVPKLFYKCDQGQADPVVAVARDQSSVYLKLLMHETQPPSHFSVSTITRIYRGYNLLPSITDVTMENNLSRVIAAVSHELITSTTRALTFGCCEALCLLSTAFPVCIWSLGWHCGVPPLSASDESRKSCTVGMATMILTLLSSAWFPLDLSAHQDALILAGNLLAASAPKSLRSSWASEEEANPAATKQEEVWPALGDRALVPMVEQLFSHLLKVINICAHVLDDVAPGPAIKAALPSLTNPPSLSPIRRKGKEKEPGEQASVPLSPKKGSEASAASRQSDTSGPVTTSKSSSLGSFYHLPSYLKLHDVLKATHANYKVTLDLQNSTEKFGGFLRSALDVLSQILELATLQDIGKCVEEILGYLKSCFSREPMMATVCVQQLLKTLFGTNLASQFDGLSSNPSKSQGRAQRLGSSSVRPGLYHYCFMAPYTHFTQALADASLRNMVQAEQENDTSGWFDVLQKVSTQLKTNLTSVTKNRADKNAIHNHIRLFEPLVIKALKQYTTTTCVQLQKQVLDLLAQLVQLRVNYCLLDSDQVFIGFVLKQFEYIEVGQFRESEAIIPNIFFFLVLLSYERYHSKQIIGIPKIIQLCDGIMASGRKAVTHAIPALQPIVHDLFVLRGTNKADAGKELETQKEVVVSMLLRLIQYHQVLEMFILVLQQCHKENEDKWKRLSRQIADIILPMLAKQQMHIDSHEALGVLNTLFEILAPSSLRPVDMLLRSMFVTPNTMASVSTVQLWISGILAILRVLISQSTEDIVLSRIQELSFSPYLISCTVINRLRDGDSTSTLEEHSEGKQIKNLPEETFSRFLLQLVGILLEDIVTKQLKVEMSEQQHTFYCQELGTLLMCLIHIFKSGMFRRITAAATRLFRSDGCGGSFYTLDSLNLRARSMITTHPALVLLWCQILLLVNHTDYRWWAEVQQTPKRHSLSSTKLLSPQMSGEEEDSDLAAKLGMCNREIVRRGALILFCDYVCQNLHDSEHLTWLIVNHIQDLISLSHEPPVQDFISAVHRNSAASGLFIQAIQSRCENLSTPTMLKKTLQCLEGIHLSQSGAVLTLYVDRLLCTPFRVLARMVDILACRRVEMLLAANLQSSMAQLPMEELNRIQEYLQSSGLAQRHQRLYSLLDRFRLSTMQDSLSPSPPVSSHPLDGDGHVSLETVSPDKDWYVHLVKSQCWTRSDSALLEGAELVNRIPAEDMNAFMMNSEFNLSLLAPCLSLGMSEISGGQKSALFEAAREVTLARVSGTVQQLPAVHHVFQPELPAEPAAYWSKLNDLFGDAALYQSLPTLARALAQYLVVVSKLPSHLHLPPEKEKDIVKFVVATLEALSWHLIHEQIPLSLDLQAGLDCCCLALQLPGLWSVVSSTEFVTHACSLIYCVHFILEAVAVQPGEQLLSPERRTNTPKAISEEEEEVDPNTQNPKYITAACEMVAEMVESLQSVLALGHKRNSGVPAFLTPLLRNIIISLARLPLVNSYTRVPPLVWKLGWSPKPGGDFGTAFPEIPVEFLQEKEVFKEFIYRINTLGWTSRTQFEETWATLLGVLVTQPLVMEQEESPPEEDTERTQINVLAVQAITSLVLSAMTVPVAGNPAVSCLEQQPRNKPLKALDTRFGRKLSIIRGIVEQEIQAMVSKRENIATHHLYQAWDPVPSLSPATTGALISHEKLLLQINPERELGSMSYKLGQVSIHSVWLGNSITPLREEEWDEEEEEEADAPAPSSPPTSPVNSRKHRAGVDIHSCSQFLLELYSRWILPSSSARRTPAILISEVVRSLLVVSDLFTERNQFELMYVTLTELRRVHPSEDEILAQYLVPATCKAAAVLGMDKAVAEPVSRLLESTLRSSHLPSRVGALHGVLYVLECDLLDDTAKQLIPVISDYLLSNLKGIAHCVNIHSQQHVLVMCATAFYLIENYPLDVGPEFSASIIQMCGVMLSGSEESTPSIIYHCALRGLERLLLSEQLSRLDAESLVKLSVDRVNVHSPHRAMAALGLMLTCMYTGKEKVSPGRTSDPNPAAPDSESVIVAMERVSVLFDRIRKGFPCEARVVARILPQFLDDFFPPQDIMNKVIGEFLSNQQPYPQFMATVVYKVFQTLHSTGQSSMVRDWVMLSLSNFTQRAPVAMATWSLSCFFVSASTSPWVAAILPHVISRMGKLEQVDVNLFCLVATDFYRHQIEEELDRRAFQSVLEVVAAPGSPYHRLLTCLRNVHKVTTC
UniProt P12814: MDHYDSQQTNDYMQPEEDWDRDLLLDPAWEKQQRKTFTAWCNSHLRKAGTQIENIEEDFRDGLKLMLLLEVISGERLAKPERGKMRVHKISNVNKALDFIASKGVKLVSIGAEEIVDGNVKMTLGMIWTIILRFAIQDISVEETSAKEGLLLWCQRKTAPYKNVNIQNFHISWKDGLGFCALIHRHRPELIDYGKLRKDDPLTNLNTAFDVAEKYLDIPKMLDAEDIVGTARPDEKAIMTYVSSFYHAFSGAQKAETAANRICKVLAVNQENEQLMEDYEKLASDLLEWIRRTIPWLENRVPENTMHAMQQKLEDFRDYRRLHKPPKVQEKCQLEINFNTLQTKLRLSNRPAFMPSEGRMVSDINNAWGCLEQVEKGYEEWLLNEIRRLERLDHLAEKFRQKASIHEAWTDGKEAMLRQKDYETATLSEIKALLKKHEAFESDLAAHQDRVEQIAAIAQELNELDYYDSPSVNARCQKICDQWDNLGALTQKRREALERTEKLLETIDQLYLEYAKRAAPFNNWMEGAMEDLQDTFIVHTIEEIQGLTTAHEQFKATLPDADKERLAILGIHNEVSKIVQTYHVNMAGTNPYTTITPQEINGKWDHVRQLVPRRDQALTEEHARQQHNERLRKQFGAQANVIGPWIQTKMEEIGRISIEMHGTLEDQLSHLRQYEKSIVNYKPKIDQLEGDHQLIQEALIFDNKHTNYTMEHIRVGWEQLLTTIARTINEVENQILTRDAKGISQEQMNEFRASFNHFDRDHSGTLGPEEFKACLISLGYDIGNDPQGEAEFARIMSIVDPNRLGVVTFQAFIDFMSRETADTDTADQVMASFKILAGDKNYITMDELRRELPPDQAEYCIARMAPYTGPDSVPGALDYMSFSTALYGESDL

Assays:
[1] = target: endogenous Huntingtin (human (endogenous in primary fibroblasts and neurons)) (UniProt P42858); experiment: proximity ligation; Duolink PLA with polyclonal anti-Huntingtin Ab1173 and monoclonal anti-α-actinin-1 in fixed human neurons grown in defined medium
[2] = target: endogenous Huntingtin (human (endogenous in primary fibroblasts and neurons)) (UniProt P42858); experiment: proximity ligation; Duolink PLA with polyclonal anti-Huntingtin Ab1173 and monoclonal anti-α-actinin-1 in fixed human Control 1 fibroblasts grown with or without serum

endogenous α-actinin-1 (from UniProt P12814 1-892)
binding [1]: binds
binding [2]: binds
